Data reported in paper PMC7311325.
These are yes or no findings as the source states them, for the method shown.

Sequences of proteins named here, by UniProt entry; tags and fusion partners are left off. Residues count along the entry.
UniProt P02768, residues 25-609: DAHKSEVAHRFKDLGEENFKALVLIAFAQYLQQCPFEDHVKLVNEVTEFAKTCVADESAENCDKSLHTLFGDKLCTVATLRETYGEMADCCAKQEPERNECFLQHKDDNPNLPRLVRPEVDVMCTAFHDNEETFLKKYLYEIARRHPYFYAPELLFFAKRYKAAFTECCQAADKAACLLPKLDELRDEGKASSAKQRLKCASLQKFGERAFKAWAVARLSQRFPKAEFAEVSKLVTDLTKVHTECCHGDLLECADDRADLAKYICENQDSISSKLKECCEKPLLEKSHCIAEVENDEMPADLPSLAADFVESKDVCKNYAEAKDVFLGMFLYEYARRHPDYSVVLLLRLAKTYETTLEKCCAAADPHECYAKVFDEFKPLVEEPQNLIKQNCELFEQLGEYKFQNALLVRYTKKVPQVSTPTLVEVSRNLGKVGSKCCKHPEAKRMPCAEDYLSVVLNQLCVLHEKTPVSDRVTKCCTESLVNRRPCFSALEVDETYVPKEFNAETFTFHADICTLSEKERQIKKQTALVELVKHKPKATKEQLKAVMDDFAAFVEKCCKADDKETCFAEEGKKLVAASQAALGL

B1: Peptide 3 (hemoglobin-derived peptide …) (peptide)
peptide: MFLSFPTTK
B2: Peptide 5 (hemoglobin-derived peptide …) (peptide)
peptide: FLASVSTVLTSKYR
B3: Peptide 2 (hemoglobin-derived peptide …) (peptide)
peptide: LLVVYPWTQR
B4: Peptide 1 (hemoglobin-derived peptide …) (peptide)
peptide: VNVDEVGGEALGRLLVVYPWTQR

Biological target: serum albumin (UniProt P02768)
Experiment: cross-linking; cross-linking mass spectrometry: protein and peptides in PBS pH 7.0, cross-linker DSSO (final 10 µmol/L), room temperature 1 h with shaking; GeLC, trypsin digestion, LC-MS/MS, cross-links searched with MeroX 2.0; both purified

binding, no binding:
B1
B2
B3
B4
